Source: the supplement of paper PMC10849652
The list shows a part of the results.

By UniProt entry, the sequences of proteins in these tests, tags left out. Where a name states a change or a piece, a line headed by the entry shows the natural chain unless it says otherwise.
UniProt Q96NT5: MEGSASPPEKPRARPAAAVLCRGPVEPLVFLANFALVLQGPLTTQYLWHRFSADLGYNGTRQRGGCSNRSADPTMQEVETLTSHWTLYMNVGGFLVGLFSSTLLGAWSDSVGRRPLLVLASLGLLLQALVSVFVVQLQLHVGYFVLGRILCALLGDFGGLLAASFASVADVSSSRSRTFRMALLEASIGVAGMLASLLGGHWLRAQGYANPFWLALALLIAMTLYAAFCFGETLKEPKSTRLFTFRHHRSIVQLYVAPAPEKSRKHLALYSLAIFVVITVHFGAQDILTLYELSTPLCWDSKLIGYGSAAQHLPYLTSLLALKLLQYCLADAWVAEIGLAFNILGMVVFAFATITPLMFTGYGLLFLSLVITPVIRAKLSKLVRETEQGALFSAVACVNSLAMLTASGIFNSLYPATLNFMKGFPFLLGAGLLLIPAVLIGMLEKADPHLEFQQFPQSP
UniProt Q96A46: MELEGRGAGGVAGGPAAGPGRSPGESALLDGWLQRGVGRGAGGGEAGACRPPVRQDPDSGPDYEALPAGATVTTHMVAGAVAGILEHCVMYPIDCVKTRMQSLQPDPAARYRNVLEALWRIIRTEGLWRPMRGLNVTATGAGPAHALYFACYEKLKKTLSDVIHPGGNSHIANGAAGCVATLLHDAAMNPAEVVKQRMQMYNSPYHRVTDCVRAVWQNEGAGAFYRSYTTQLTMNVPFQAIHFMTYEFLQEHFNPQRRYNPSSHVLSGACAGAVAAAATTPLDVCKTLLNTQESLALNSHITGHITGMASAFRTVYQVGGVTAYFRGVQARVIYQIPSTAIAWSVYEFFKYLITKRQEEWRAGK
UniProt Q8N2U9: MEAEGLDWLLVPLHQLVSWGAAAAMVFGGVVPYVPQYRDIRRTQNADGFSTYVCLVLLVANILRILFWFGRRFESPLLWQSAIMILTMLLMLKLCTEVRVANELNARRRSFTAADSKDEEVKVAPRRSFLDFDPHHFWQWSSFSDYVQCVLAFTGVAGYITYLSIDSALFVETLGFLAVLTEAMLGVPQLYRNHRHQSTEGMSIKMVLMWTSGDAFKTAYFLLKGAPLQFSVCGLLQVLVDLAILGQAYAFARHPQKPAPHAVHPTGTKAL
UniProt Q96GZ6: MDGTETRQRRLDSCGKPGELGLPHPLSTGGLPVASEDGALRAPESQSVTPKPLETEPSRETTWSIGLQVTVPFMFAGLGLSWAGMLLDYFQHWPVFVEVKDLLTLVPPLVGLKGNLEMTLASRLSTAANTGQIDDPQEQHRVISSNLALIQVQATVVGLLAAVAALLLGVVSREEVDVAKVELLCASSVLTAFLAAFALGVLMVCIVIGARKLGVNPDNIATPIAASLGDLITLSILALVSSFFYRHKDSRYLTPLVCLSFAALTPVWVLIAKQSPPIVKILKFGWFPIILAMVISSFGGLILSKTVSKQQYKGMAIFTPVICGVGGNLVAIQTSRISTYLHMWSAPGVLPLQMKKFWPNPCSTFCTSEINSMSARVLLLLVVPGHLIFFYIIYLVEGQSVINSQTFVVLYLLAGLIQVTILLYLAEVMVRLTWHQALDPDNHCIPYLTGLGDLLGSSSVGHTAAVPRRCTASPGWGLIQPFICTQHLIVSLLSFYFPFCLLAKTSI
UniProt Q6ZP29: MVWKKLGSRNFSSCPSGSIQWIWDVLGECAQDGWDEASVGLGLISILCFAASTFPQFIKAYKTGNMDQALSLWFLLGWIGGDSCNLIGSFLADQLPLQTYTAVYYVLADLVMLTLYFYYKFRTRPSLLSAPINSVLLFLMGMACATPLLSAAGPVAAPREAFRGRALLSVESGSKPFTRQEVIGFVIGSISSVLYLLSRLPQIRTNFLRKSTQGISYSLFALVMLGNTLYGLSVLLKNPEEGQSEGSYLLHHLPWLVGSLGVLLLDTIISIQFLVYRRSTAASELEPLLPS
UniProt Q3KQZ1: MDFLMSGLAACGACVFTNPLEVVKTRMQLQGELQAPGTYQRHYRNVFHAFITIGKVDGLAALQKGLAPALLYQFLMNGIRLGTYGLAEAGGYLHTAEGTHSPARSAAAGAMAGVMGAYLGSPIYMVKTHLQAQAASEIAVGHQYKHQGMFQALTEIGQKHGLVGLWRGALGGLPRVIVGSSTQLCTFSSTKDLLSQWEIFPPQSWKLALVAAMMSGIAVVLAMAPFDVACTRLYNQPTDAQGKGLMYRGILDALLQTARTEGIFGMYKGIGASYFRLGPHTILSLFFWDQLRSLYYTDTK
UniProt Q9UGH3: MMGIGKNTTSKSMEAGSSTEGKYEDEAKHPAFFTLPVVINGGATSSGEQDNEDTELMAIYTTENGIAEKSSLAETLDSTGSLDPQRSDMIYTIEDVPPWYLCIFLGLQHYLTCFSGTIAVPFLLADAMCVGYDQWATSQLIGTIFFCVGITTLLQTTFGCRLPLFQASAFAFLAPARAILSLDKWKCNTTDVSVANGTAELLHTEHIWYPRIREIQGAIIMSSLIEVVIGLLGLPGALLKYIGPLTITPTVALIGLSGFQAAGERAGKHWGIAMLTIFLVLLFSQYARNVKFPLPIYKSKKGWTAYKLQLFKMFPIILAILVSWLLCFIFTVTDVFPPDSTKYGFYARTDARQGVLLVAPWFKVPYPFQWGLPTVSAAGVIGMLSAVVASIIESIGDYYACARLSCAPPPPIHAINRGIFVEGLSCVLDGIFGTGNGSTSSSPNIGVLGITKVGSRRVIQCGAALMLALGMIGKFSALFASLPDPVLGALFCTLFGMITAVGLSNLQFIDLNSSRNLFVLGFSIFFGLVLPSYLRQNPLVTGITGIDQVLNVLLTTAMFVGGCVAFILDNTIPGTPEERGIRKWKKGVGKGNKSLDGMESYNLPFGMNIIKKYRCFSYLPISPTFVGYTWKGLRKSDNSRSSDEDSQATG
UniProt Q6YBV0: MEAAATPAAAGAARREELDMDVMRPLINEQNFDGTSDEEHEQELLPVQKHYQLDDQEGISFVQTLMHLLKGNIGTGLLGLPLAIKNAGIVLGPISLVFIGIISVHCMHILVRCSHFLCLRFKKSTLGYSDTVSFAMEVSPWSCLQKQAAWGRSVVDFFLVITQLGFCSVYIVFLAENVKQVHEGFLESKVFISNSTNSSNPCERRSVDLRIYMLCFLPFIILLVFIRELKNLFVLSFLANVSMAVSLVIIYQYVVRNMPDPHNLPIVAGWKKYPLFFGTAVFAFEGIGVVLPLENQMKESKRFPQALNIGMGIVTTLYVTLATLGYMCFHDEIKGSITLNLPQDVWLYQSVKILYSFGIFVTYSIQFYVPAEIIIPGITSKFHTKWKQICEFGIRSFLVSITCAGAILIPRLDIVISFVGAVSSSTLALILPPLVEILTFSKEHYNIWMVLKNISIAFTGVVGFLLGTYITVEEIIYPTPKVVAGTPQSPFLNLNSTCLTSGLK
UniProt Q8IY92: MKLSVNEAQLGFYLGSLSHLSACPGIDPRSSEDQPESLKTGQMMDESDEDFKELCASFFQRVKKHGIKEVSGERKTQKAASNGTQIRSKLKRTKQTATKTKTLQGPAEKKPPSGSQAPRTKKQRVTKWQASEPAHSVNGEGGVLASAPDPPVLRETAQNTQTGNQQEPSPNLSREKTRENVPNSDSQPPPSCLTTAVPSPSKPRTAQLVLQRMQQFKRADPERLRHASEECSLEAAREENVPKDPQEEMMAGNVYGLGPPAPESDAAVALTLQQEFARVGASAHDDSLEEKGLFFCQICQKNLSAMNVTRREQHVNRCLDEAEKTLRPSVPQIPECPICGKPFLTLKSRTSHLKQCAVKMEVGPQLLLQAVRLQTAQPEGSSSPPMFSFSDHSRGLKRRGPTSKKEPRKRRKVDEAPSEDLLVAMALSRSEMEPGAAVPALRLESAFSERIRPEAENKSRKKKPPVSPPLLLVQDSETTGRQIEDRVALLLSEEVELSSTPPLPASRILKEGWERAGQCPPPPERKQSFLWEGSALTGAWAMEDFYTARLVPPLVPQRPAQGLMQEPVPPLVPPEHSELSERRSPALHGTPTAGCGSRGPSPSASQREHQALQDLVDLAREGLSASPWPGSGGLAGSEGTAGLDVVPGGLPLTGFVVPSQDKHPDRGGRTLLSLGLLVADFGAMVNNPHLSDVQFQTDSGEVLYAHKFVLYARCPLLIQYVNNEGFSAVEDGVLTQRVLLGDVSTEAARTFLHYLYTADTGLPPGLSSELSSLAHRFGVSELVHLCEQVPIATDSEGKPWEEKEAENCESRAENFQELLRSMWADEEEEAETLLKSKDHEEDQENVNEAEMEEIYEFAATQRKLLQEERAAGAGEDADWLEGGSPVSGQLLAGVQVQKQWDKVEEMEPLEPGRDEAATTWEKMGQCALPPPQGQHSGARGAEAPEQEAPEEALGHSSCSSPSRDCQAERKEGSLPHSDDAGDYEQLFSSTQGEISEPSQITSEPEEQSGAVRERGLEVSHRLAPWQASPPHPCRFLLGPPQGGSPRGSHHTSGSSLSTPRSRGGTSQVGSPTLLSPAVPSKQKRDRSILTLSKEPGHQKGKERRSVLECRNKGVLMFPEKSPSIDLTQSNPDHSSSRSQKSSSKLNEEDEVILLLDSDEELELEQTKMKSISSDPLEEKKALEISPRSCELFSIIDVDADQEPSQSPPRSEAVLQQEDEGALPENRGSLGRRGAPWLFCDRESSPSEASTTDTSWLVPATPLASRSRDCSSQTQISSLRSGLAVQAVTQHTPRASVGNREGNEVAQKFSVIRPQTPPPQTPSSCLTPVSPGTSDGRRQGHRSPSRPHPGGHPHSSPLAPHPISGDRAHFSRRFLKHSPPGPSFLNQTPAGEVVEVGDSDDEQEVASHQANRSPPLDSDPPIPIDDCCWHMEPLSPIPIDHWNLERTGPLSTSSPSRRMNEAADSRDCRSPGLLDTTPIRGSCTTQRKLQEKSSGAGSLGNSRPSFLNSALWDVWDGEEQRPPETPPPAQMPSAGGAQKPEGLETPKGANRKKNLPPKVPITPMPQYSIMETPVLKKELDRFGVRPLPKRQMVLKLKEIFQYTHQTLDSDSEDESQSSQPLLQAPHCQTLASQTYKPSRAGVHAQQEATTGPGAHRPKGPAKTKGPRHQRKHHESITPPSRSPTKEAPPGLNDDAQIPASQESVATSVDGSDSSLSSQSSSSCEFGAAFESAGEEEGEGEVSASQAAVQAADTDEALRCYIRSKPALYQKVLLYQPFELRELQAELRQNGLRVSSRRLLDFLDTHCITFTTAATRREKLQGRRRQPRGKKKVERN
UniProt Q6J4K2: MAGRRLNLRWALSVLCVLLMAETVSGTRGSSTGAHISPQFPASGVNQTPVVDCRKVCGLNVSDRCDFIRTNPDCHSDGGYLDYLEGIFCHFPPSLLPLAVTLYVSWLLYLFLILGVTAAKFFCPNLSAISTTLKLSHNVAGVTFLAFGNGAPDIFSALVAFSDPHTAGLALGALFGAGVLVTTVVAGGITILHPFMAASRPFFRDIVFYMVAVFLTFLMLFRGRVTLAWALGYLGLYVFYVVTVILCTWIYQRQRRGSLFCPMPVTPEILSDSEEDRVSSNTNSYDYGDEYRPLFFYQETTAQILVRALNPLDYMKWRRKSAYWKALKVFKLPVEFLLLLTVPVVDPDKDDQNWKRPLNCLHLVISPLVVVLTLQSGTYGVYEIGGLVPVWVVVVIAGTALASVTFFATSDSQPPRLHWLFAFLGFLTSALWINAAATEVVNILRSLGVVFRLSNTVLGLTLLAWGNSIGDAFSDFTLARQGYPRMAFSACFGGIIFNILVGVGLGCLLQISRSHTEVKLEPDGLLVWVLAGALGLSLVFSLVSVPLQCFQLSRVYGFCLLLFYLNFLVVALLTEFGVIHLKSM
UniProt Q9NTN3, whole entry, looked up: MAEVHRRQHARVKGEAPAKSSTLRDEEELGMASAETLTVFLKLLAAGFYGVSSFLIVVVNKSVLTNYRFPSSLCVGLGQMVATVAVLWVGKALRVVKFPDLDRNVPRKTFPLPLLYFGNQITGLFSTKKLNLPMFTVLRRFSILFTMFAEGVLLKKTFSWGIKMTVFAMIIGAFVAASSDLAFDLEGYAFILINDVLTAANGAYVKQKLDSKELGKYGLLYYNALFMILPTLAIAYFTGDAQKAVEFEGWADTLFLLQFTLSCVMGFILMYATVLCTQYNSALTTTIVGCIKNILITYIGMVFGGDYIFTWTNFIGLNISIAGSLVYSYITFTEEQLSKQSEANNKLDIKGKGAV
UniProt Q0VAQ4: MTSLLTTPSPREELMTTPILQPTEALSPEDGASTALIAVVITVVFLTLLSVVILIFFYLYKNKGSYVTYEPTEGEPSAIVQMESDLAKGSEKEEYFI
UniProt Q8N755: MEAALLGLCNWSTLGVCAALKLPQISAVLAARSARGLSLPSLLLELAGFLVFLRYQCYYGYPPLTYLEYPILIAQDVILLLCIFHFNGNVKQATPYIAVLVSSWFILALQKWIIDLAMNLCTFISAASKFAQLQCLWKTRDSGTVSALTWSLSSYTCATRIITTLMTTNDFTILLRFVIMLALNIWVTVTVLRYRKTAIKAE

Assays:
Assay in all cases: log2 fold change, soluble protein after heating vs DMSO (PISA); higher = thermal stabilisation; K562 lysate, 10 uM; active = over 0.2 and 3.5 SD of the protein, either way, in both replicates (recomputed)
erlotinib = compound: C#Cc1cccc(Nc2ncnc3cc(OCCOC)c(OCCOC)cc23)c1 [erlotinib]
Procedure, shortened: (§1)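 K562 pellets were dounce-homogenised in PBS pH 7.4 with 1 mM MgCl2, and the crude extract at 1 mg/mL protein was treated with 10 μM compound for 30 min. Aliquots were heated for 3 min across 48°C-58°C, pooled, and brought to 0.5% NP-40 at 4°C; soluble protein was the supernatant after 21,000xg for 90 min. Soluble protein was quantified by TMTpro 16plex LC-MS/MS with channel sums equalised, and reported as log2 fold change in thermal stability against DMSO controls, with values from duplicates.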

[1] = compound: C1=CC(=CC=C1C2=NC3=C(N2)C=C(C=C3)C(=O)N)OC4=CC=C(C=C4)Cl
Procedure, shortened: as §1

[2] = compound: C1=CC=C(C=C1)C2=NC(=C(N2)C3=CC=NC=C3)C4=CC(=C(C=C4)Cl)O
Procedure, shortened: as §1

IRAK-1-4 Inhibitor I = compound: C1COCCN1CCN2C3=CC=CC=C3N=C2NC(=O)C4=CC(=CC=C4)[N+](=O)[O-] [IRAK-1-4 Inhibitor I]
Procedure, shortened: as §1

[3] = compound: C/C(=N\NC(=O)C1=CC(=CC=C1)S(=O)(=O)N2CCOCC2)/C3=C(C=CC(=C3)Cl)O
Procedure, shortened: as §1

[4] = compound: C1=CC2=C(C=CC(=C2)/C=C\3/C(=O)NC(=NCC4=CC=CS4)S3)N=C1
Procedure, shortened: as §1

[5] = compound: C1=CC=C2C(=C1)C3=NNC4=CC=CC(=C43)C2=O
Procedure, shortened: as §1

[6] = compound: C1CCN(C1)C(=O)NC2=CC=CC(=C2)NC3=NC=C(C(=N3)NCCC4=CN=CN4)Br
Procedure, shortened: as §1

[7] = compound: C1CN(CCC1(CC2=CC=C(C=C2)Cl)N)C3=NC=NC4=C3C=CN4
Procedure, shortened: as §1

[8] = compound: C1=CC2=NC=CN=C2C=C1/C=C/3\C(=O)NC(=O)S3
Procedure, shortened: as §1

Measured: log2 fold change

SLC46A1 (UniProt Q96NT5)
inactive: erlotinib -0.057 | [1] 0.227

SLC39A6 (UniProt Q13433)
inactive: erlotinib 0.012 | [1] 0.018 | [2] -0.049 | IRAK-1-4 Inhibitor I -0.023

SLC25A28 (UniProt Q96A46)
inactive: [3] -0.116 | [4] 0.139 | [5] -0.232 | [6] -0.129 | [7] 0.278

SLC50A1 (UniProt Q9BRV3)
inactive: erlotinib -0.004 | [1] 0.175 | [2] -0.152 | IRAK-1-4 Inhibitor I -0.009

SLC66A2 (UniProt Q8N2U9)
inactive: erlotinib -0.004 | [1] 0.076 | [8] 0.14 | [2] -0.063 | [6] -0.045 | [7] 0.033 | IRAK-1-4 Inhibitor I 0.019

SLC41A3 isoform 9 (UniProt Q96GZ6)
inactive: [3] -0.056 | [4] 0.011 | [8] 0.292 | [2] -0.046 | [5] -0.234 | [6] -0.1 | [7] -0.017 | IRAK-1-4 Inhibitor I -0.452

SLC66A1 (UniProt Q6ZP29)
inactive: erlotinib 0.06 | [1] 0.11 | [8] -0.079 | [2] 0.066 | IRAK-1-4 Inhibitor I 0.017

SLFN14 (UniProt P0C7P3)
inactive: [3] -0.057 | [4] -0.079 | [8] -0.01 | [5] 0.182 | [6] -0.083 | [7] -0.091

SLC3A2 (UniProt F5GZS6)
inactive: erlotinib -0.234 | [1] 0.045 | [8] -0.063 | [2] -0.155 | [6] -0.014 | [7] 0.011 | IRAK-1-4 Inhibitor I 0.007

SLC35C2 isoform 3 (UniProt Q9NQQ7)
inactive: erlotinib 0.019 | [1] 0.014 | [8] -0.013 | [2] 0.024 | [6] -0.082 | [7] 0.147 | IRAK-1-4 Inhibitor I 0.03

SLC3A2 (UniProt F5H867)
inactive: [8] -0.019

SLCO4A1 (UniProt Q96BD0)
inactive: [8] 0.08

SLC25A35 (UniProt Q3KQZ1)
inactive: [6] -0.008 | [7] 0.174

SLC25A23 isoform 3 (UniProt Q9BV35)
inactive: erlotinib 0.021 | [1] 0.003 | [2] -0.03 | IRAK-1-4 Inhibitor I 0.011

SLC23A2 (UniProt Q9UGH3)
inactive: erlotinib -0.112 | [1] 0.214 | [2] 0.054 | [6] -0.086 | [7] 0.106 | IRAK-1-4 Inhibitor I -0.018

SLC36A4 (UniProt Q6YBV0)
inactive: erlotinib 0.055 | [1] -0.005 | [8] -0.039 | [2] 0.036 | [6] -0.297 | [7] 0.072 | IRAK-1-4 Inhibitor I -0.021

SLX4 (UniProt Q8IY92)
inactive: erlotinib 0.061 | [1] -0.107

Taken from the results shown (2 entries):
SLC50A1 (UniProt Q9BRV3)
inactive: erlotinib -0.004 | [1] 0.175 | [2] -0.152 | IRAK-1-4 Inhibitor I -0.009

SLC66A2 (UniProt Q8N2U9)
inactive: erlotinib -0.004 | [1] 0.076 | [8] 0.14 | [2] -0.063 | [6] -0.045 | [7] 0.033 | IRAK-1-4 Inhibitor I 0.019

(continued)

SLC8B1 (UniProt Q6J4K2)
inactive: [3] 0.178 | [4] -0.051 | [5] 0.087

SLC35D1 (UniProt Q9NTN3)
inactive: [3] 0.032 | [4] -0.053 | [5] 0.125

SMAGP (UniProt Q0VAQ4)
inactive: erlotinib -0.024 | [1] -0.014 | [2] -0.005 | [6] -0.112 | [7] 0.063 | IRAK-1-4 Inhibitor I -0.089

SLC9A8 isoform 2 (UniProt Q9Y2E8)
inactive: erlotinib -0.16 | [1] -0.038 | [8] 0.057 | [2] -0.052 | IRAK-1-4 Inhibitor I 0.038

SLC2A13 (UniProt Q96QE2)
inactive: erlotinib 0.051 | [1] -0.047 | [6] -0.053 | [7] -0.05

SLC39A13 (UniProt Q96H72)
inactive: erlotinib 0.344 | [1] 0.063 | [2] -0.252 | IRAK-1-4 Inhibitor I -0.025

SLC9A7 (UniProt Q96T83)
inactive: [8] -0.568

SLC29A3 (UniProt Q9BZD2)
inactive: erlotinib 0.007 | [1] 0.034 | [2] 0.014 | IRAK-1-4 Inhibitor I 0.099

SLC30A7 (UniProt Q8NEW0)
inactive: [3] 0.093 | [4] -0.077 | [8] -0.093 | [2] -0.087 | [5] 0.01 | [6] 0.015 | [7] 0.021 | IRAK-1-4 Inhibitor I 0.147

SLC39A1 (UniProt Q9NY26)
inactive: erlotinib 0.117 | [1] 0.069 | [8] -0.122 | [2] -0.224 | IRAK-1-4 Inhibitor I 0.133

SMAD3 (UniProt P84022)
inactive: [2] 0.034 | IRAK-1-4 Inhibitor I -0.143

SLC25A39 (UniProt Q9BZJ4)
inactive: erlotinib 0.185 | [1] -0.105

SLC27A6 (UniProt Q9Y2P4)
inactive: erlotinib 0.045 | [1] -0.346

SLCO2B1 (UniProt O94956)
inactive: [6] -0.193 | [7] -0.378

SLC43A3 (UniProt Q8NBI5)
inactive: [8] 0 | [2] -0.168 | IRAK-1-4 Inhibitor I 0.022

SLC9B2 (UniProt Q86UD5)
inactive: [2] 0.101 | IRAK-1-4 Inhibitor I -0.084

SLC41A1 (UniProt Q8IVJ1)
inactive: erlotinib 0.176 | [1] -0.042 | [2] 0.018 | [6] 0.024 | [7] -0.014 | IRAK-1-4 Inhibitor I -0.008

SLC66A3 (UniProt Q8N755)
inactive: [3] 0.302 | [4] -0.369 | [5] 0.123
